The values below come from paper PMC12752551.

No constants are given. Whether binding was seen depends on the method and setting. Some entries that bind do so weakly or less than the wild type. Sequences can lack the tags named with a protein.

In test [1] the target is T1, GST-RFWD3, recombinant (UniProt Q6PCD5).
T1 sequence: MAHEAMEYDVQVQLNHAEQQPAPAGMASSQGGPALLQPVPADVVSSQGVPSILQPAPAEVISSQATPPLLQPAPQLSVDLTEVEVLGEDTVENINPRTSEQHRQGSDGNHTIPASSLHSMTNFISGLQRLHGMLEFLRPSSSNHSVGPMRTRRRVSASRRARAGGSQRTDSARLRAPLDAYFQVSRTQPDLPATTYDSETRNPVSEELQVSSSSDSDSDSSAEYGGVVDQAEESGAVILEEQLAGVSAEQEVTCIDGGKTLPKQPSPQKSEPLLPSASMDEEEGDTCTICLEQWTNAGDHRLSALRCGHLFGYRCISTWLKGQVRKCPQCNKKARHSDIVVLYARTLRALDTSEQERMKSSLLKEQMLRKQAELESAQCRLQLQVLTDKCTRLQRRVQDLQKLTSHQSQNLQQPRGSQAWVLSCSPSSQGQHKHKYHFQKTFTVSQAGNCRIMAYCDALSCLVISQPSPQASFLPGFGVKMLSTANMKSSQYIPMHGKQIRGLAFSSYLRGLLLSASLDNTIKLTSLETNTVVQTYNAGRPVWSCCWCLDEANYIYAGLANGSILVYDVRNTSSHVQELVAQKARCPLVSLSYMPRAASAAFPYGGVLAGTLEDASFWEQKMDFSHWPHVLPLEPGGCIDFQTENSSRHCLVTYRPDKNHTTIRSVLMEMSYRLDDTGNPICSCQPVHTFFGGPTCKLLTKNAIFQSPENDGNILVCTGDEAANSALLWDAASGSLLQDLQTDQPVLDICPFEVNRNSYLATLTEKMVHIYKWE
Nature of the test: pull-down; GST or GST-RFWD3 (15 µg) on Glutathione Sepharose 4B 5 h at 4 °C, then His-TREX1 at 4 °C overnight; washed four times; western blot; both purified. On the technique in general: Immunoblotting shows a protein as a band on a membrane.

Test [2] has as its target T2, GST-TRIM24, recombinant (UniProt O15164).
T2 sequence: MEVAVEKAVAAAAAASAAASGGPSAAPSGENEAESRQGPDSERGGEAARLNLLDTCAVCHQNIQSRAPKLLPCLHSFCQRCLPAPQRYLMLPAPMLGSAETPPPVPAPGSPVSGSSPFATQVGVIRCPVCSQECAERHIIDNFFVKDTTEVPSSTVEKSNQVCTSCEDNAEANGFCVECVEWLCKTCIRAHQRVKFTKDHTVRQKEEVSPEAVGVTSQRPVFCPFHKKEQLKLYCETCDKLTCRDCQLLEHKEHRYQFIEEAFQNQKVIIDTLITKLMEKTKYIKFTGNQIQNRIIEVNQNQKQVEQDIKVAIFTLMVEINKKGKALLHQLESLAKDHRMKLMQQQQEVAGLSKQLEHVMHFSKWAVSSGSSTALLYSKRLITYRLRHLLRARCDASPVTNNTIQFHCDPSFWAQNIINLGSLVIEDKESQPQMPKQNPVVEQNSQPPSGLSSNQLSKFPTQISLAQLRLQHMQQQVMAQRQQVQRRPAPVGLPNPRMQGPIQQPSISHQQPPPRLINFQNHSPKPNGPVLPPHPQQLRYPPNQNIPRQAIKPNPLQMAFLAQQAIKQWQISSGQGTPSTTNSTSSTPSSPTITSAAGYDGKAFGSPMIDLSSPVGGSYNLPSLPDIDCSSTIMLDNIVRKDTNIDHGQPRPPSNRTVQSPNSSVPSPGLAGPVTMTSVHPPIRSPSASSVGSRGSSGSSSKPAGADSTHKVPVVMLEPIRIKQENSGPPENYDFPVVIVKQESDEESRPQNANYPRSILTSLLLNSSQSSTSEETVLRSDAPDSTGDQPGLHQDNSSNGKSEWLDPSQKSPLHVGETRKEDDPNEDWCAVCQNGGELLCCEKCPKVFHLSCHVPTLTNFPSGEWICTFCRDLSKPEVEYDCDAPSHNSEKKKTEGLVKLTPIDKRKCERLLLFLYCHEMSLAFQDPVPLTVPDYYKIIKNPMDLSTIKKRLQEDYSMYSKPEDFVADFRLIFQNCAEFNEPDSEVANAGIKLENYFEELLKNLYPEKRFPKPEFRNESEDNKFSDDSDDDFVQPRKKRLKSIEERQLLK
The experiment in a line: ELISA; competition ELISA: plates coated with recombinant GST-TRIM24 (0.5 µg/mL), incubated with recombinant His-TREX1 (3 µg/mL) and different concentrations of RFWD3 protein; HRP-conjugated anti-His tag antibody; both purified. A general note: ELISA stands for enzyme-linked immunosorbent assay.

B1: His-TREX1 (1-314 aa), recombinant (protein, UniProt Q9NSU2-3 1-314)
chain: MGSQALPPGPMQTLIFFDMEATGLPFSQPKVTELCLLAVHRCALESPPTSQGPPPTVPPPPRVVDKLSLCVAPGKACSPAASEITGLSTAVLAAHGRQCFDDNLANLLLAFLRRQPQPWCLVAHNGDRYDFPLLQAELAMLGLTSALDGAFCVDSITALKALERASSPSEHGPRKSYSLGSIYTRLYGQSPPDSHTAEGDVLALLSICQWRPQALLRWVDAHARPFGTIRPMYGVTASARTKPRPSAVTTTAHLATTRNTSPSLGESRGTKDLPPVKDPGALSREGLLAPLGLLAILTLAVATLYGLSLATPGE
In the case of B1, the binding entry in test [1] and in test [2] was “binds” throughout.
